Source: patent US11613558B2, “Peptides and pharmaceutical compositions for treating eye diseases” (Yuyu Pharma, Inc., priority 2018, dated 2023)
Structures can show the parent of a compound that is named as a salt. Some entries share one result that the patent states for a list of compounds. Square brackets hold non-standard residues; d marks the D form. Peptide text beside a SMILES is read from it. Pro(4,4-Me2) = CC1(C)CN[C@H](C(=O)O)C1; Hyp = O=C(O)[C@@H]1C[C@@H](O)CN1

Legend:
[1] = system: rats with dry eye syndrome (extraorbital lacrimal gland excision, ELGE); test: Amount of tear secretion (Schirmer test, cobalt chloride paper) in ELGE rats with dry eye syndrome; assay type: in vivo, rat; conditions: 3% solution as printed
Source text: (§1) In order to evaluate the eye protection effect on dry eye syndrome by YDE-001 to YDE-028 prepared in Example 1, a total of 320 Sprague-Dawley-type male rats (OrientBio, Seungnam, Korea) were adapted for 7 days. Thereafter, dry eye syndrome was induced in 264 test rats through extraorbital lacrimal gland excision (hereinafter, ELGE). 8 test rats without the eye abnormality were subjected to a sham operation as a control group.
(§2) The rat was systemically anesthetized by inhaling a mixed gas of 2% to 3% of isoflurane (Hana Pharm. Co., Hwasung, Korea), 70% of N2O, and 28.6% of O2 using a rodent anesthesia machine (Surgivet, Waukesha, Wis., USA) and a ventilator (Model 687, Harvard Apparatus, Cambridge, UK). Thereafter, the extraorbital lacrimal gland located in the subdermal area above the masseter muscle and […] was excised through a transverse incision in a size of 10 mm on the anterior part of the left ear tragus. The skin was sutured by a general method. […] After 6 days from the ELGE operation, it was checked through the Schirmer test by measuring the amount of tear secretion whether dry eye syndrome had been induced. Meanwhile, each rat of the control group with the sham operation was checked for the presence and location of the extraorbital lacrimal gland through a skin incision, and the skin was then sutured without the excision thereof (FIG. 4).
(§3) In addition, in order to evaluate the eye protection effect on dry eye syndrome by YDE-029 to YDE-043 prepared in Example 1, a total of 200 Sprague-Dawley-type male rats (OrientBio, Seungnam, Korea) were adapted for 7 days. Dry eye syndrome was induced in 165 test rats through the ELGE. 8 test rats without the eye abnormality were subjected to the sham operation as a control group. The ELGE was carried out as described above.
(§4) For YDE-001 to YDE-028, YY-102 and the 28 YDE-series were each dissolved in physiological saline at a concentration of 3 mg/ml and administered at a dose of 5 μl/eye at 9:30 am and 3:30 pm daily for 14 days after 7 days from the ELGE operation for a total of 28 times. The DS solution was dissolved in physiological saline at a concentration of 30 mg/ml and administered at a dose of […] twice a day for 14 days after 7 days from the ELGE operation for a total of 28 times. For the sham control and the ELGE control groups, the same stimulation as the administration was applied. In order to prevent excessive eye dryness, the same volume of physiological saline was applied in the same manner in place of the test substances.
as §4, with “Further, for YDE-029 to YDE-043,” for “For YDE-001 to YDE-028,”, “YDE-029 to YDE-043, YY-102 and” for “YDE-001 to YDE-028, YY-102 and”, “and the 15 YDE-series were” for “and the 28 YDE-series were”, “the test substances (FIG. 7).” for “the test substances.”
After 6 days from the ELGE surgery, the changes in the amount of tear secretion were measured at day 7 and day 14 after the administration of YDE-001 to YDE-043. The amount of tear secretion was measured by the […] travel distance of tears absorbed by cobalt chloride paper in a size of 1×15 mm (Toyo Roshi Kaisha, Japan).
The cobalt chloride paper was placed in the lateral canthus of a rat for 60 seconds to absorb tears (FIG. 9). The length of the area absorbed from the corner of the cobalt chloride paper was measured with an electronic digital caliper (Mytutoyo, Tokyo, Japan) (FIG. 8).

[2] = system: cornea of rats with dry eye syndrome (ELGE); test: Corneal permeability of fluorescent dye (corneal damage) in ELGE rats with dry eye syndrome; assay type: in vivo, rat; conditions: 3% solution as printed
Source text: as §1, §2, §3, §4
as §4, with “Further, for YDE-029 to YDE-043,” for “For YDE-001 to YDE-028,”, “YDE-029 to YDE-043, YY-102 and” for “YDE-001 to YDE-028, YY-102 and”, “and the 15 YDE-series were” for “and the 28 YDE-series were”, “the test substances (FIG. 7).” for “the test substances.”
After YDE-001 to YDE-028 were each administered to the eyes […], the changes in the corneal permeability were checked.
In order to measure the corneal permeability, Zolethyl 50™ (Virbac Lab., Carros, France), an animal anesthetic, was intraperitoneally injected at a dose of 25 mg/kg. Thereafter, saline containing a 1% (v/v) fluorescent solution (fluorescein sodium salt, Tokyo Kasei Kogyo Co., Tokyo, Japan) was applied to the eyes at a dose of 5 μl/eye. The eyes thus treated were closed and fixed with a tape. After 1 hour, the remaining fluorescent solution was removed using a cotton swab (FIG. 12). […]

[3] = system: human primary corneal epithelial cells; test: Cell growth rate of human primary corneal epithelial cells (CellTiter-Glo); assay type: cell-based; conditions: 48 hours and 72 hours
Description: In order to confirm whether the YDE derivatives could recover corneal damage, the cellular growth rate of human primary corneal epithelial cells was checked.
Specifically, primary corneal epithelial cells (ATCC, ATCC PCS-700-010) were seeded on a 96-well culture plate (Perkin Elmer, 6005680) containing the Corneal Epithelial Cell Basal Medium (ATCC, ATCC PCS-700-030) in the Corneal Epithelial Cell Growth Kit (ATCC, ATCC PCS-700-040) in an amount of 5×10^3 cells per well, which was then cultured for 24 hours under the conditions of 37° C. and 5% CO2.
YDE-001 to YDE-075 were each dissolved in 100% DMSO (Sigma, D2660) to a concentration of 10 mM, which was then diluted with 100% DMSO to a concentration of the compound of 6, 1.9, 0.6, 0.2, 0.06, 0.02, 0.006, and 0.002 mM. 20 μl of the diluted YDE derivative was added to a 96-well microplate (Greiner Bio-One, 651201) containing 380 μl of the Corneal Epithelial Cell Basal Medium such that the concentration of DMSO was diluted to 5%.
After 24 hours, 20 μl of each of the YDE derivatives diluted in the 96-well microplate was added to the 96-well culture plate containing the cells. As a control group, hEGF (Sigma, E9644) was treated at the same concentration as the YDE derivatives. The cells treated with the YDE-derivatives or hEGF were cultured for 48 hours and 72 hours under the conditions of 37° C. and 5% CO2 (FIGS. 18 to 25).
The cultured cells were treated with the CellTiter-Glo luminescent reagent (Promega, G7573) according to the manufacturer's instructions and reacted for 30 minutes at room temperature. Thereafter, the fluorescent signal (or luminescence signal) was checked using an Envision 2014 Multi-label plate reader. The measured values were normalized using a vehicle control (100% proliferation cell).

SMILES: CC(C)C[C@H](NC(=O)CNC(=O)[C@H](CC(C)C)NC(=O)[C@H](CCC(N)=O)NC(=O)CNC(=O)[C@@H]1C[C@@H](O)CN1)C(=O)N[C@@H](C)C(=O)NCC(=O)N1CCC[C@H]1C(=O)N[C@@H](CCCCN)C(=O)O [YDE-011, H-Hyp-Gly-Gln-Leu-Gly-Leu-Ala-Gly-Pro-Lys-OH AcOH salt] (H-[Hyp]GQLGLAGPK-OH)
- Increase of amount of tear secretion as compared with the DS reference group ([1]; study of YDE-001 to YDE-028): more than 20%
- Decrease of permeability of the fluorescent dye as compared with the DS reference group ([2]; study of YDE-001 to YDE-028): more than 20%
- Concentrations at which cell proliferation was observed [3]: ≤ 0.3 µM

SMILES: CC(C)C[C@H](NC(=O)CNC(=O)[C@H](CC(C)C)NC(=O)[C@H](CCC(N)=O)NC(=O)CNC(=O)[C@@H]1CC(C)(C)CN1)C(=O)N[C@@H](C)C(=O)NCC(=O)N1CCC[C@H]1C(=O)N[C@@H](CCCCN)C(=O)O [YDE-040] (H-[Pro(4,4-Me2)]GQLGLAGPK-OH)
- Increase of amount of tear secretion as compared with the DS reference group ([1]; study of YDE-029 to YDE-043): more than 20%
- Decrease of permeability of the fluorescent dye as compared with the DS reference group ([2]; study of YDE-029 to YDE-043): more than 20%

SMILES: CC(C)C[C@H](NC(=O)CNC(=O)[C@H](CC(C)C)NC(=O)[C@H](CCC(N)=O)NC(=O)CNC(=O)[C@@H]1C[C@@H](O)CN1)C(=O)O [YDE-042] (H-[Hyp]GQLGL-OH)
- Increase of amount of tear secretion as compared with the DS reference group ([1]; study of YDE-029 to YDE-043): more than 20%
- Decrease of permeability of the fluorescent dye as compared with the DS reference group ([2]; study of YDE-029 to YDE-043): more than 20%
- Concentrations at which cell proliferation was observed [3]: ≤ 0.3 µM

SMILES: CC(C)C[C@H](NC(=O)[C@H](CCC(N)=O)NC(=O)CNC(=O)[C@@H]1C[C@@H](O)CN1)C(=O)NCC(=O)O [YDE-043] (H-[Hyp]GQLG-OH)
- Increase of amount of tear secretion as compared with the DS reference group ([1]; study of YDE-029 to YDE-043): more than 20%
- Decrease of permeability of the fluorescent dye as compared with the DS reference group ([2]; study of YDE-029 to YDE-043): more than 20%
- Concentrations at which cell proliferation was observed [3]: ≤ 0.3 µM
